Assay results taken from publication PMC7549768.
These are yes or no findings as the source states them, for the method shown. Binding seen in cells or lysates may run through a third protein. Some entries that bind do so weakly or less than the wild type. For part of these data: Sequences can lack the tags named with a protein.

Chains of the proteins cited; added tags and fusions are not shown.
UniProt P61026: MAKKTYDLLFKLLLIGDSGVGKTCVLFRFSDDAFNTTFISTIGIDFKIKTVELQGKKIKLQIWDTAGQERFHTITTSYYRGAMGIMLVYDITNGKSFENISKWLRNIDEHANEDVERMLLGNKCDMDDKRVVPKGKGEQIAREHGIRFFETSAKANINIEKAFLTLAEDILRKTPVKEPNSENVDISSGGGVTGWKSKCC
UniProt Q15388: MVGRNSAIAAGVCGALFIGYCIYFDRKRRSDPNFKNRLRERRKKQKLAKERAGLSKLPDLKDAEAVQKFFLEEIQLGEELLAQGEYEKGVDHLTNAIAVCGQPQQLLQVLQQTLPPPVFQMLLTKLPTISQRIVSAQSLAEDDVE
UniProt Q9DCC8: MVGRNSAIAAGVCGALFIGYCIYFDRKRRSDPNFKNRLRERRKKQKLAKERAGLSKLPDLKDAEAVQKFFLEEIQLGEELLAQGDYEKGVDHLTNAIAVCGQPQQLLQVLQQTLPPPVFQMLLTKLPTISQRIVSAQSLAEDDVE

Columns and labels:
[1] = biological target: T1, FLAG-TBC1D21 (UniProt Q9D9D3); assay: co-IP; NT2D1 cells transfected with pFLAG-TBC1D21 and GFP-RAB10; lysate (4 mg protein in 1 mL) pre-cleared with A/G beads, incubated overnight with anti-FLAG or control IgG and A/G beads, washed twice with 1X PBS; immunoblot with FLAG, GFP, RAB10 and TOMM20 antibodies
T1 sequence: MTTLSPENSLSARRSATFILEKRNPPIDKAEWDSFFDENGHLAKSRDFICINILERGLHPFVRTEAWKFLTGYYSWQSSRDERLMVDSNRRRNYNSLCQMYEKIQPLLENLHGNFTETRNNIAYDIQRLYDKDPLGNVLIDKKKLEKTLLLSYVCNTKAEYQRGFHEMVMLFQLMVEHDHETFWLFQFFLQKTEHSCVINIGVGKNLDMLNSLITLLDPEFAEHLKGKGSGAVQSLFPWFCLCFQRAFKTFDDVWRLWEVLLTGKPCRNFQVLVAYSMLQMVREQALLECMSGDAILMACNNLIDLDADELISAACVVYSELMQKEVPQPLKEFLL

[2] = biological target: T2, TBC1D21 (mouse (endogenous in sperm)) (UniProt Q9D9D3); assay: proximity ligation; Duolink PLA on purified wild-type murine sperm fixed on slides; anti-TBC1D21 with anti-TOMM20 or anti-DNAH7 antibodies, 12 hours at 4°C; probes less than 40 nm apart give a signal; midpiece stained with Mito-tracker
T2 sequence: T1 sequence

| binding [1] | binding [2] | Substance |
| --- | --- | --- |
| binds |  | GFP-RAB10 (from UniProt P61026 1-200) |
| binds |  | TOMM20 (translocase of outer membrane 20 of mitochondria) (from UniProt Q15388 1-145) |
|  | binds | TOMM20 (translocase of outer membrane 20 of mitochondria) (from UniProt Q9DCC8 1-145) |
